The results in this text go back to paper PMC5543139.

Chains of the proteins cited; added tags and fusions are not shown. A line that says so, or that is headed by a name, gives the form on record, which may keep a tag or linker. Residues count along the entry.
UniProt P47871, 26-477: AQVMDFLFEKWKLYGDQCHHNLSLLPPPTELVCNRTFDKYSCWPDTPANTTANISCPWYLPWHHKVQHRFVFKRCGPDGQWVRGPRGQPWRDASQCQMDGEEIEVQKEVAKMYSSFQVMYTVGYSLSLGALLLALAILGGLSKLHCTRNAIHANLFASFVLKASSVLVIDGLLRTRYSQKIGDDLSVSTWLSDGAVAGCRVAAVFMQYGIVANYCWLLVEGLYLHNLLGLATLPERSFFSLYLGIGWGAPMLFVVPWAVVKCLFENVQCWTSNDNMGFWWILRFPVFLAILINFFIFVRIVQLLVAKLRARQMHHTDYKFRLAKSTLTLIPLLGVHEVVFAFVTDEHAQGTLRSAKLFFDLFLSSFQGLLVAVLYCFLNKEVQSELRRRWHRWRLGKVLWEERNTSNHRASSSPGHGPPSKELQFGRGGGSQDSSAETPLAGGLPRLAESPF
glucagon receptor on CHO-GCGR cells (human), one chain, as listed by the source: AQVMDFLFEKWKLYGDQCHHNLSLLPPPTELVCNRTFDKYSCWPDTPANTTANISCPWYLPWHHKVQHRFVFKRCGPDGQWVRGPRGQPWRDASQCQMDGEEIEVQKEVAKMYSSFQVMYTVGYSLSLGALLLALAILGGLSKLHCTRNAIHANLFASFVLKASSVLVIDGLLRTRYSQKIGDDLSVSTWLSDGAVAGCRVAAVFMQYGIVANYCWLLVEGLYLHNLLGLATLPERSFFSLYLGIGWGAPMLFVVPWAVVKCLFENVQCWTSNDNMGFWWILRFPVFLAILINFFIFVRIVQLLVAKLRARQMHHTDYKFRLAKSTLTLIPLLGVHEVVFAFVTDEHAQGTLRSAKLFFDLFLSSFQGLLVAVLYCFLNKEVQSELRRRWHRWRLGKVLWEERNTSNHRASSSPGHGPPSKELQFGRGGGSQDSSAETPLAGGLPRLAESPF

In data set [1] the test system is glucagon receptor on CHO-GCGR cells (human). The data set can be described thus: flow cytometry on live cells. Particulars: D-PBS pH 7.4, 5 mM MgCl2, 4.5 g/L glucose, 0.1 mg/mL yeast tRNA, 1 mg/L BSA, 1 h (45 min in Results for Kd), protein on the cell surface, single-stranded DNA. A general note: In flow cytometry, cells or beads pass a laser one at a time.
Data set [2] concerns the target endogenous glucagon receptor on HepG2 cells (UniProt P47871). The experiment in a line: flow cytometry on live cells. Particulars: 250 nM, 4 C, binding scarce after gcgr siRNA, D-PBS pH 7.4, 5 mM MgCl2, 4.5 g/L glucose, 0.1 mg/mL yeast tRNA, 1 mg/L BSA, 1 h (45 min in Results for Kd), protein on the cell surface, label: FAM (flow cytometry), biotin (pull-down), single-stranded DNA.

Data set [3] addresses glucagon receptor from CHO-GCGR membrane lysate (human) (UniProt P47871). The experiment in a line: biotin-aptamer pull-down, western blot. Particulars: 4 C overnight, salmon sperm DNA, library and beads alone gave no band, D-PBS pH 7.4, 5 mM MgCl2, 4.5 g/L glucose, 0.1 mg/mL yeast tRNA, 1 mg/L BSA, 1 h (45 min in Results for Kd), protein in a lysate after overexpression, label: FAM (flow cytometry), single-stranded DNA.

Where [4] appears, read: affinity differs between truncations, no binding to Mock cells, 4 C.

For at least one entry, the source does not settle the construct or the ends of the probe. At least one result comes from cells or an extract, where the contact may be indirect. For some assays here: At least one verdict was read from the data and is not stated in words by the source.

In the case of “GCAGCAGATAAGTAGGTATCCGTTTGAAAAACTTTTCTGACCGTCCGACTATGGACACGGTGGCTTAGT [GR-3b]”, in data set [1] (setting [4]), the binding result was “binds”.
“ATAAGTAGGTATCCGTTTGAAAAACTTTTCTGACCGTCCGACTATGGA [GR-3e]”: in data set [1] (setting [4]), the binding result was “binds”.
As for “GCAGCAGATAAGTAGGTATCCGTTTGAAAAACTTTTCTGACCGTCCGACTATGGA [GR-3d]”, in data set [1] (affinity close to full-length GR-3, no binding to Mock cells, 4 C), the binding result is listed as “binds”.
Take “GACGCAGCAGATAAGTAGGTATCCGTTTGAAAAACTTTTCTGACCGTCCGACTATGGAC [GR-3c]”: in data set [1] (setting [4]), the binding result is reported as “binds”.
“ATCCAGAGTGACGCAGCAGATAAGTAGGTATCCGTTTGAAAAACTTTTCTGACCGTCCGACTATGGACACGGTGGCTTAGT [GR-3]”: the binding result in data set [1] (37 C, signal almost the same as at 4 C, label: FAM (flow cytometry), biotin (pull-down)) is on record as “binds”; in data set [2], “binds”; in data set [3] it was “binds”.
In the case of “ATCCAGAGTGACGCAGCAGATAAGTAGGTATCCGTTTGAAAAACTTTTCTGACCGTCCGACTATGGA [GR-3a]”, in data set [1] (setting [4]), the binding result is listed as “binds”.
